Laboratory results: the supplement of paper PMC11006884
This is a selection; strong and weak results do not stand in their true shares. Single values of this set are uncertain.

Chains of the proteins cited; added tags and fusions are not shown. Lines headed by an entry give the natural chain unless they say otherwise; changes in a name come on top.
UniProt Q92900: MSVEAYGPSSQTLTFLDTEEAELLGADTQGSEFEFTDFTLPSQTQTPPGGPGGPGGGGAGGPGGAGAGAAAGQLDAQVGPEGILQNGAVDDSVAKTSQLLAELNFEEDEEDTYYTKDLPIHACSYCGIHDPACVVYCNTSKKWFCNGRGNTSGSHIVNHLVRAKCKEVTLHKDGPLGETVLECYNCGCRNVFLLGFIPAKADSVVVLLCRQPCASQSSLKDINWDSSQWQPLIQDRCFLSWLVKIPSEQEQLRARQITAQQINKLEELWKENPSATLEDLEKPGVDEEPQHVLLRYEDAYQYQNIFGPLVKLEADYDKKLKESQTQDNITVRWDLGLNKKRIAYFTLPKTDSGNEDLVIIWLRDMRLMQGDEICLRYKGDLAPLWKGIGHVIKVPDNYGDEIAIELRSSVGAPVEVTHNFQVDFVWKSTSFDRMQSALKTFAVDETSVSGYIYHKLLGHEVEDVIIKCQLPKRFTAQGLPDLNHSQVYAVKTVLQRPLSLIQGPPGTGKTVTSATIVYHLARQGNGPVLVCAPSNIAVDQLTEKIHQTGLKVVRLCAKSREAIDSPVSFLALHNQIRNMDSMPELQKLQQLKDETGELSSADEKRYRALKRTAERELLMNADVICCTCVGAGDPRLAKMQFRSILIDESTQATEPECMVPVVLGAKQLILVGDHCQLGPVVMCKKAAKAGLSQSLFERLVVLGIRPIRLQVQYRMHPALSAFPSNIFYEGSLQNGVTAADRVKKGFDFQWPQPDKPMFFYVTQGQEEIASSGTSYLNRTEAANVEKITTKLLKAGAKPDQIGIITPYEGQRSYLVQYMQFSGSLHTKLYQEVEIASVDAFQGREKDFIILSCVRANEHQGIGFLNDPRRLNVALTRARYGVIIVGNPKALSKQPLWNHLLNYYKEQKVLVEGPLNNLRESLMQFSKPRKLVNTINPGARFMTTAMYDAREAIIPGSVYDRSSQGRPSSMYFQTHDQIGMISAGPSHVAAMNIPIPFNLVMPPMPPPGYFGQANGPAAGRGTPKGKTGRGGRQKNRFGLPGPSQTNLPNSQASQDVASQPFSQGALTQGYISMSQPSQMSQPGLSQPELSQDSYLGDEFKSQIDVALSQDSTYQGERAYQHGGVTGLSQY
UniProt Q93074, whole entry, looked up: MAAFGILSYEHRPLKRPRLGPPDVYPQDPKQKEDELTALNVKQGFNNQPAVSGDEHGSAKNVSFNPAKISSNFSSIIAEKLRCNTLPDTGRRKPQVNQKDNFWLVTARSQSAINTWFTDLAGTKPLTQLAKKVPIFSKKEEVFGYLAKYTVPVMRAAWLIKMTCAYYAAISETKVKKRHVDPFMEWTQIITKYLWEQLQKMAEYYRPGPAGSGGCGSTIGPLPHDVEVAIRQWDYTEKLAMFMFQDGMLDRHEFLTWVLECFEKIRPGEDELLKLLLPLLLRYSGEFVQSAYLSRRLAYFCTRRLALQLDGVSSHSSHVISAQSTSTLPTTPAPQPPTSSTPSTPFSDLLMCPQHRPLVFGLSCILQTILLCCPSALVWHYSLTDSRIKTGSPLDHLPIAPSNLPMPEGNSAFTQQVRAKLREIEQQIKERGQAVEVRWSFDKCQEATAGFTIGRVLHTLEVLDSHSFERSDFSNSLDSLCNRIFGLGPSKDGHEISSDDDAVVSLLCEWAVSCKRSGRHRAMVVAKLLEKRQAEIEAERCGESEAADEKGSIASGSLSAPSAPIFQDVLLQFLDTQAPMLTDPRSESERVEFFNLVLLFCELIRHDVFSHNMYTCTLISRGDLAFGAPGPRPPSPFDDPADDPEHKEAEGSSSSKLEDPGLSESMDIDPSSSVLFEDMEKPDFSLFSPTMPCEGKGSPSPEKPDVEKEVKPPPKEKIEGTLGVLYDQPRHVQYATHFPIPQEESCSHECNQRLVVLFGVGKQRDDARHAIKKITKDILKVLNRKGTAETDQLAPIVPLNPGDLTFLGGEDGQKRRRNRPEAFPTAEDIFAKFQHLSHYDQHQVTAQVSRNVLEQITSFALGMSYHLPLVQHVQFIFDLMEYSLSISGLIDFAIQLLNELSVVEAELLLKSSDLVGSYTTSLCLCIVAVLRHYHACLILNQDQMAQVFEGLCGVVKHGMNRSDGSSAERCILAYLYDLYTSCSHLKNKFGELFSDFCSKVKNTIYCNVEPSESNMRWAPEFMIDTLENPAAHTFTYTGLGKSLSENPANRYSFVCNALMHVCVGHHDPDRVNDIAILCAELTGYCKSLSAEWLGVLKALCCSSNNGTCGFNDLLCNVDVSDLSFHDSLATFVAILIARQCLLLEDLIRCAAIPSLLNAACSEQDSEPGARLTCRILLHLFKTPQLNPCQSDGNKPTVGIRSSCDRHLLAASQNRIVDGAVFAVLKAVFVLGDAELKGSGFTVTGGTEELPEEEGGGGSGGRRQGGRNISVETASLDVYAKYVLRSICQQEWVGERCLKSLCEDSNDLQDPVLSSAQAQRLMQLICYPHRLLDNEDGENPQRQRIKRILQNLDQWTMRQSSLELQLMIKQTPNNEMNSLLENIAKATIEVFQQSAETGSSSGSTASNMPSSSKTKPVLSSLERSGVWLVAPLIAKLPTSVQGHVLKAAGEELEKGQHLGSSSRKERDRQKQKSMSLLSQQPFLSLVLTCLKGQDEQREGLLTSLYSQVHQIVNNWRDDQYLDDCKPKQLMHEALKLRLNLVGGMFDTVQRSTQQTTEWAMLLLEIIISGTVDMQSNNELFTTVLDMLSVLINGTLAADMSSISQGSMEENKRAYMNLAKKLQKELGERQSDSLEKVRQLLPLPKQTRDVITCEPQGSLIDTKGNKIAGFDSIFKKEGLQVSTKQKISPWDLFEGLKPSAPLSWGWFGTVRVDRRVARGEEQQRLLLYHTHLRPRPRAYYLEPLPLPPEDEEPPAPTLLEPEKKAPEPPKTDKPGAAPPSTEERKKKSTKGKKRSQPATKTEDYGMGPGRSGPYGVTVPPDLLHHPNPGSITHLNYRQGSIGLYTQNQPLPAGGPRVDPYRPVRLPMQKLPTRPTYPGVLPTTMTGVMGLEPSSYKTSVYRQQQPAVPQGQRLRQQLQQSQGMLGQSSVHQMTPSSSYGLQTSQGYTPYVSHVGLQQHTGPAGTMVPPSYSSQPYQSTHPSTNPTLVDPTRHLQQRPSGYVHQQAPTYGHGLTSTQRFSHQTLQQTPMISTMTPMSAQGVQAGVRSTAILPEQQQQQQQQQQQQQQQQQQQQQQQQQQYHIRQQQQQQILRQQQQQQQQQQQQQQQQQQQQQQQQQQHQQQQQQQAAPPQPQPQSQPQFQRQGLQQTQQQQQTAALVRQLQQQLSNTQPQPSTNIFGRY
UniProt Q96CS3: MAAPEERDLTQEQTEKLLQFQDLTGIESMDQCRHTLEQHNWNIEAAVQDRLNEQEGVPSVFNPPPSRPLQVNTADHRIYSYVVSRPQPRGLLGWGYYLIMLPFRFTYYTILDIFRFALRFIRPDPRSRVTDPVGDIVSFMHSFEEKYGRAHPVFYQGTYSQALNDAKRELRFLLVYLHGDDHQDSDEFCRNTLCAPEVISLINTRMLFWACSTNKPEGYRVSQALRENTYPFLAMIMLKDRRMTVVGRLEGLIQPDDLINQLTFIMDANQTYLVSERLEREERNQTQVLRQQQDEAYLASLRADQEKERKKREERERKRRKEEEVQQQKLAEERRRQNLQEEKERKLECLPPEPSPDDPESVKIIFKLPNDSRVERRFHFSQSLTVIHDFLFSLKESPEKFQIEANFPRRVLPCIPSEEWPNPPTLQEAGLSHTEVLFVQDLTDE
UniProt Q96E11: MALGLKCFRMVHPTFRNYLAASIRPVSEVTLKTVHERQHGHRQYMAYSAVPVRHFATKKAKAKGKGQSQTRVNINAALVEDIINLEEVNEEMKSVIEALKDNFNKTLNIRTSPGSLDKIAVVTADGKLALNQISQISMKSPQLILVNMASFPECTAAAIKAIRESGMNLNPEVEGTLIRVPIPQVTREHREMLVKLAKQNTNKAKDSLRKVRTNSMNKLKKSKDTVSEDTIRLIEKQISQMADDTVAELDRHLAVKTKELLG
UniProt Q96FZ2: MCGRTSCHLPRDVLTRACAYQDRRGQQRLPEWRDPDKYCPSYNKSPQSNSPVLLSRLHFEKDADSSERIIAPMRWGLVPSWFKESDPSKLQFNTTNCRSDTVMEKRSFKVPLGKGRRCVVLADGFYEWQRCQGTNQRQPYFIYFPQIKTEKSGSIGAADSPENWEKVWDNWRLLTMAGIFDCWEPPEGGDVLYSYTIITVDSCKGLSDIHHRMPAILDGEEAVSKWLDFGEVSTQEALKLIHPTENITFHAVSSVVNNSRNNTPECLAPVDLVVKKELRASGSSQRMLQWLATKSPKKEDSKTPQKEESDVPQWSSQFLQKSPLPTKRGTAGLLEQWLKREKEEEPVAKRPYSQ
UniProt Q92766: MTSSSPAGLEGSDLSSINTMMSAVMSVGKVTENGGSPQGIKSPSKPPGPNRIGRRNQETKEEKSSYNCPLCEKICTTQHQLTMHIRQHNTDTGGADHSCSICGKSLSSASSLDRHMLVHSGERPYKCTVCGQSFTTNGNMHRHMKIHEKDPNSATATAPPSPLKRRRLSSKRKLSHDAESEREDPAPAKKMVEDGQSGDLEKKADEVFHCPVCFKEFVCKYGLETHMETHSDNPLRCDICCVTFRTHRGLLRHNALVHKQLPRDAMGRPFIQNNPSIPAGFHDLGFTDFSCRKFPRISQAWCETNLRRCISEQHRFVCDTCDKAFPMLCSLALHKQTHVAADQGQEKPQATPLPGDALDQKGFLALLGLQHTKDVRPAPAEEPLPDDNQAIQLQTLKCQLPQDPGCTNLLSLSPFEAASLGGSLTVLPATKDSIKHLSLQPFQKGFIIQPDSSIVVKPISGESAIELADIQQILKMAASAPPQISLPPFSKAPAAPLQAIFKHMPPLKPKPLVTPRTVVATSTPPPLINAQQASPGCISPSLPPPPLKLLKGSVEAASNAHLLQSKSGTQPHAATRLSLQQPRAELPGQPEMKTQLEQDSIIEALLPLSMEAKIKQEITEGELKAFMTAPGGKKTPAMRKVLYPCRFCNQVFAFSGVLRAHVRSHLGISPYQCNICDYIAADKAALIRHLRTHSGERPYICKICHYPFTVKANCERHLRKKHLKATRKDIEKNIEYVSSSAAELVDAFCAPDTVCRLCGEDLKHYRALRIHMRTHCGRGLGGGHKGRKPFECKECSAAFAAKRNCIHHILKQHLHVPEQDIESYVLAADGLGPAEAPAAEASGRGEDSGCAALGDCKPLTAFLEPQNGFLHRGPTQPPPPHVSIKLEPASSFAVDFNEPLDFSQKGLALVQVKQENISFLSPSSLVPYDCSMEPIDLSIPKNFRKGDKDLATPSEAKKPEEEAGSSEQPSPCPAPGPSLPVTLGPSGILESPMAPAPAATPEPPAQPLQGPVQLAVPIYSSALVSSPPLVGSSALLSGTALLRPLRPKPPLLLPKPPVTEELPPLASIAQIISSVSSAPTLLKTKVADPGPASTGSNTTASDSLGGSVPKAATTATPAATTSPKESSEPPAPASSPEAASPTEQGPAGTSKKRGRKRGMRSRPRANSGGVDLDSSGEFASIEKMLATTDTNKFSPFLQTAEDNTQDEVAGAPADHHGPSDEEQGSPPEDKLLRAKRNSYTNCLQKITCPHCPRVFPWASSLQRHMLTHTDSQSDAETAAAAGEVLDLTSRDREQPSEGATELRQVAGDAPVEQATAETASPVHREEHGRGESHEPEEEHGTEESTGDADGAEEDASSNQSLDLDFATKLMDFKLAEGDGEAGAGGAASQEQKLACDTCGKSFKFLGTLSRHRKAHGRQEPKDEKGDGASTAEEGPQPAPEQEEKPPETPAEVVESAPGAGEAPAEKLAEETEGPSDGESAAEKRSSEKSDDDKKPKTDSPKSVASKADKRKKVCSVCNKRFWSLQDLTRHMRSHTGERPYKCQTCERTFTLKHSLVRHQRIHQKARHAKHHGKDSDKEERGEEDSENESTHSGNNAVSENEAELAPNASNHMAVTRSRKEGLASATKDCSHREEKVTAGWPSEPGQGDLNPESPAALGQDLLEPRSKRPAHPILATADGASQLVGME
UniProt Q96F86: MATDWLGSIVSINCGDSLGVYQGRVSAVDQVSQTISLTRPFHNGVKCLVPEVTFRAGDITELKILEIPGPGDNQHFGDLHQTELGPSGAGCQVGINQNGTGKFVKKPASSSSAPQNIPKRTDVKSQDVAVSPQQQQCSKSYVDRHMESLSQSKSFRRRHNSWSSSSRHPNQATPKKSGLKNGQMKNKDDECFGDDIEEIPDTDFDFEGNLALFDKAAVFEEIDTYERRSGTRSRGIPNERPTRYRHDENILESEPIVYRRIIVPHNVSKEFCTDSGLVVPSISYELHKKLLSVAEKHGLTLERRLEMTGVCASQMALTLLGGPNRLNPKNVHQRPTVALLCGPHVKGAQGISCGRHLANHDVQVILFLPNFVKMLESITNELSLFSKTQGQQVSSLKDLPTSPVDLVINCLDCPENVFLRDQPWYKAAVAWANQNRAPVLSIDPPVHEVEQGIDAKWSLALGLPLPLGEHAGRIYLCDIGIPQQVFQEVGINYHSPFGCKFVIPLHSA

Compound: COC(=O)/C=C/c1ccccc1 [methyl cinnamate]
Assay: log2 ratio of iodoacetamide-alkyne labeling of the cysteine site, DMSO over compound (competition); higher = stronger covalent engagement of the cysteine by the compound, active = 1 or more
Conditions: 500 µM; treatment time 1 h; system: HEK293T cell lysate
Method in brief: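 The log2 competition ratio per cysteine is defined as mean reporter intensity in control channels over mean reporter intensity in compound channels. Lysate from HEK293T cells (2 mg/mL) received electrophile (500 µM) or vehicle for 1 h at ambient temperature, followed by iodoacetamide alkyne for 1 h. Samples were clicked to sCIP-TMT reagents, pooled, trypsin-digested overnight at 37 °C, streptavidin-enriched, acid-eluted and run on Orbitrap Eclipse LC-MS/MS with FAIMS, with quantification in FragPipe. Three replicates with duplicate channels were used, and any cysteine quantified in only one replicate was excluded.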

log2 ratio of iodoacetamide-alkyne labeling, inactive:
USP9X C2075 (UniProt Q93008) 0.0972
UPF1 C531 (UniProt Q92900) -0.172
TUBGCP3 C18 (UniProt Q96CW5) 0.515
MED12 C83 (UniProt Q93074) 0.406
FAF2 C194 (UniProt Q96CS3) 0.124
UniProt Q92616_C246 0.0116
LRRC59 C48 (UniProt Q96AG4) 0.132
RPL36AL C77 (UniProt Q969Q0) 0.108
PSMG2 C168 (UniProt Q969U7) 0.0102
MRRF C154 (UniProt Q96E11) -0.0202
UniProt Q96FZ2_C266 0.165
PHKB C299 (UniProt Q93100) 0.202
RNF31 C504 (UniProt Q96EP0) 0.18
NDRG1 C272 (UniProt Q92597) -0.0355
SYAP1 C283 (UniProt Q96A49) 0.0961
RREB1 C648 (UniProt Q92766) 0.25
DCPS C37 (UniProt Q96C86) 0.182
FLYWCH2 C132 (UniProt Q96CP2) -0.0543
RNF34 C65 (UniProt Q969K3) 0.549
NRBF2 C126 (UniProt Q96F24) 0.307
UniProt Q92616_C36 0.285
EDC3 C410 (UniProt Q96F86) 0.087

For reference, some entries already given.
log2 ratio of iodoacetamide-alkyne labeling, inactive:
RNF34 C65 (UniProt Q969K3) 0.549
NRBF2 C126 (UniProt Q96F24) 0.307
